According to patent US20030181663A1:
Results are given in words; binding and its absence hold for the method and conditions named. Some entries that bind do so weakly or less than the wild type.

Amino acid sequences for entries named in this document (tags omitted). A change or cut given only in a name is not applied to a line headed by its entry.
UniProt O76061: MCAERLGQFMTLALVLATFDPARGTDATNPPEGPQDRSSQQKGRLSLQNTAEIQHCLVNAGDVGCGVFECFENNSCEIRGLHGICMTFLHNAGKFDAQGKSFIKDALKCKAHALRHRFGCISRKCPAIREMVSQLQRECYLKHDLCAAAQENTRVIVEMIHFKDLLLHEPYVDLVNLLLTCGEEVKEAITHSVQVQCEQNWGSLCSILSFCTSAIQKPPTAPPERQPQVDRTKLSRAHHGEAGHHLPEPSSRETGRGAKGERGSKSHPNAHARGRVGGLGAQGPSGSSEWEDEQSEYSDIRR

Biological target: human stanniocalcin-alpha (human) (UniProt O76061)
Experiment: SDS-PAGE and autoradiography of 35S-labelled proteins from Sf9 cells infected with recombinant baculovirus

Which binding does the source give for “human stanniocalcin-alpha (from UniProt O76061 25-302) (ligand)” here?
Its binding is “binds”.
